According to patent US20160187355A1 (AUGUSTA UNIVERSITY RESEARCH INSTITUTE, published 2016):
Results are given in words; binding and its absence hold for the method and conditions named. In cells and extracts the contact can be indirect. Some binding calls cover weakened binding; strength is not graded here.

Amino acid sequences for entries named in this document (tags omitted). A change or cut given only in a name is not applied to a line headed by its entry. Chains listed by the source or under a name are the forms on record and can include a tag or linker. Residues count along the entry.
UniProt Q9QYP1, residues 21-1723: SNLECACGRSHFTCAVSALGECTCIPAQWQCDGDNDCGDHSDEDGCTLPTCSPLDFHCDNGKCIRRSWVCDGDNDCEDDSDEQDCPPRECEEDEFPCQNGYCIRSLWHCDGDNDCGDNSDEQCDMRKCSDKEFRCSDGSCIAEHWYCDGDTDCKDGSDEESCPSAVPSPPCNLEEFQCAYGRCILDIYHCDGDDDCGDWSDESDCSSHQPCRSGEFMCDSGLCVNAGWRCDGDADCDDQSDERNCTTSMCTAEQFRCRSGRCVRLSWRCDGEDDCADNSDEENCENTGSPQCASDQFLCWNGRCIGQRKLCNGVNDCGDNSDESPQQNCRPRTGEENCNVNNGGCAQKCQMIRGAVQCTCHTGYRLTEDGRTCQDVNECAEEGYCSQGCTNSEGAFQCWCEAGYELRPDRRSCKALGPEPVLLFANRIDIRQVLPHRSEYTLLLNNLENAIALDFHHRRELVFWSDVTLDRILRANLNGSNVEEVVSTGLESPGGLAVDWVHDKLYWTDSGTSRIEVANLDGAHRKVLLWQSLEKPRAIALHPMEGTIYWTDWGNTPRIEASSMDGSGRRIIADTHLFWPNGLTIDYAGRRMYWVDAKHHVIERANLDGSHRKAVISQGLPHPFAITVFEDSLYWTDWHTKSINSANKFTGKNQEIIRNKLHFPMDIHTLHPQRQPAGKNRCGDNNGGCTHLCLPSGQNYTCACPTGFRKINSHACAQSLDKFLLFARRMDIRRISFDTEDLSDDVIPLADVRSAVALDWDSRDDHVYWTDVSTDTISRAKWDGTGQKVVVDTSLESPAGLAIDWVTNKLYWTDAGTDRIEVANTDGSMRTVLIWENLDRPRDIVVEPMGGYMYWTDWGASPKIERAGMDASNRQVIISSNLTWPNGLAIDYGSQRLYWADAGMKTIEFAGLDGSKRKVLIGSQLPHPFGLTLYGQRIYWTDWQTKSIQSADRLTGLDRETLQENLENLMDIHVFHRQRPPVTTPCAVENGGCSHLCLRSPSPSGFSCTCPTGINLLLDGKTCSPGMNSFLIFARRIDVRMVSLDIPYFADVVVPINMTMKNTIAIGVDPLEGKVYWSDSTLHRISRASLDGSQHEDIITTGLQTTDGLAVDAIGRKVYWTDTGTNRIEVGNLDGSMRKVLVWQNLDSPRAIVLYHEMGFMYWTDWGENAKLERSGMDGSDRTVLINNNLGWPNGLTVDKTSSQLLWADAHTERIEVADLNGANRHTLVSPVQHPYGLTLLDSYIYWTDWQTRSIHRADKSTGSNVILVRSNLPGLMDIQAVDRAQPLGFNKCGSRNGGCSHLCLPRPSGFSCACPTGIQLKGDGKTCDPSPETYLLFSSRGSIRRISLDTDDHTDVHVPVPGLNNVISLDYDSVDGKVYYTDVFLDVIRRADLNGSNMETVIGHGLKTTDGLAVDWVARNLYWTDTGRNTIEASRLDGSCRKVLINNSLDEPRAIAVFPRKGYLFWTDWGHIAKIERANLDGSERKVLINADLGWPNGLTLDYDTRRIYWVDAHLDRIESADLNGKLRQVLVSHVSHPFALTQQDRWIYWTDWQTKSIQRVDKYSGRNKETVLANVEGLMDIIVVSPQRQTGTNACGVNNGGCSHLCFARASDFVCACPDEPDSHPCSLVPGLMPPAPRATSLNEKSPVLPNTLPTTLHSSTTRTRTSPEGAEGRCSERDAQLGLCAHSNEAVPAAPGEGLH
UniProt Q8VI56, residues 21-1905: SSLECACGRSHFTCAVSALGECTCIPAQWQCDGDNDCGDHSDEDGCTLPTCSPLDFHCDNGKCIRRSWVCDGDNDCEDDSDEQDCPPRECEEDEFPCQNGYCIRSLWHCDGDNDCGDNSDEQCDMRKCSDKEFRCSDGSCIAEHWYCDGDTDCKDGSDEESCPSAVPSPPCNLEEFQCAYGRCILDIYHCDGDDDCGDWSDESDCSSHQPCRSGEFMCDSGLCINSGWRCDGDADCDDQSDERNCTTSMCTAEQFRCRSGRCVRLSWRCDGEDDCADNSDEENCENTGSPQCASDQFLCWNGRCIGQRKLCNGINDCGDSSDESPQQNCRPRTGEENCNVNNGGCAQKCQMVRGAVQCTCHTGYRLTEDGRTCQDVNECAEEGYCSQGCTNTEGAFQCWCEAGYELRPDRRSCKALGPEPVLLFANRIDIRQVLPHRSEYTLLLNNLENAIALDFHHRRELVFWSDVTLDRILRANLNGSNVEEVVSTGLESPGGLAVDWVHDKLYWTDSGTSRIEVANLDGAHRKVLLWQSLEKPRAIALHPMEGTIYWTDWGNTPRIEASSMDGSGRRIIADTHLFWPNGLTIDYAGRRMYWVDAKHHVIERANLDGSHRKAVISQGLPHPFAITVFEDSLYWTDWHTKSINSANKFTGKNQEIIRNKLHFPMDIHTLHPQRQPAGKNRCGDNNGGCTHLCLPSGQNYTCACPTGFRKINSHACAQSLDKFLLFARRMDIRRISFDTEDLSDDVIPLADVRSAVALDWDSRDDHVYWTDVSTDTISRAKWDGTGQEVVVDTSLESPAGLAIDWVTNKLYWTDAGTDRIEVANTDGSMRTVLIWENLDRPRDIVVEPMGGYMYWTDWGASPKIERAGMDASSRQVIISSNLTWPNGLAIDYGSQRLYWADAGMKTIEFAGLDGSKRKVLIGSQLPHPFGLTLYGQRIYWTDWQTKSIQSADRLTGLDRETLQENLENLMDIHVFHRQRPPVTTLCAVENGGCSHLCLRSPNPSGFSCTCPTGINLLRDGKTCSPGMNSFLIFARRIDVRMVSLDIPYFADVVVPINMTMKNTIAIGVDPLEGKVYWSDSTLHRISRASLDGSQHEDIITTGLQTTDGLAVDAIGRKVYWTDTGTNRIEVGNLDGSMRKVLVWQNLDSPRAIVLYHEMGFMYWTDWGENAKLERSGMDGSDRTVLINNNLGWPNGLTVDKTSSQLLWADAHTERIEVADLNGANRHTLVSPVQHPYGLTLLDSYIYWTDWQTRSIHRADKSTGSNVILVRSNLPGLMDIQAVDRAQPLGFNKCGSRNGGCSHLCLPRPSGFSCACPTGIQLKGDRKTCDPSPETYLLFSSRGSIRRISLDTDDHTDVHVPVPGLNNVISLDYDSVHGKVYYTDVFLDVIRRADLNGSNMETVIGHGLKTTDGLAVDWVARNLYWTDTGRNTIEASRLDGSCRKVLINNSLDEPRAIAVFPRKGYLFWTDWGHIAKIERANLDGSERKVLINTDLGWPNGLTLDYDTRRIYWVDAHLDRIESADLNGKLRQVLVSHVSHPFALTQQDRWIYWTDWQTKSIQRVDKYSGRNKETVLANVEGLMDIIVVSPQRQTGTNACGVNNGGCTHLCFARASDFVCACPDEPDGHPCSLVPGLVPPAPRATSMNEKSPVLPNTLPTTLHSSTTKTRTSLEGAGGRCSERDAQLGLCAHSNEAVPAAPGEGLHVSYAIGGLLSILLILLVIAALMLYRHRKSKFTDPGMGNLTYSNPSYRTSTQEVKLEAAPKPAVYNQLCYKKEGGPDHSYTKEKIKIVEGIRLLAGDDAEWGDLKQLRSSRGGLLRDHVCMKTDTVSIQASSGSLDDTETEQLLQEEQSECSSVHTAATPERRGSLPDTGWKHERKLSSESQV
Flag-nAgrin (P25304, form named): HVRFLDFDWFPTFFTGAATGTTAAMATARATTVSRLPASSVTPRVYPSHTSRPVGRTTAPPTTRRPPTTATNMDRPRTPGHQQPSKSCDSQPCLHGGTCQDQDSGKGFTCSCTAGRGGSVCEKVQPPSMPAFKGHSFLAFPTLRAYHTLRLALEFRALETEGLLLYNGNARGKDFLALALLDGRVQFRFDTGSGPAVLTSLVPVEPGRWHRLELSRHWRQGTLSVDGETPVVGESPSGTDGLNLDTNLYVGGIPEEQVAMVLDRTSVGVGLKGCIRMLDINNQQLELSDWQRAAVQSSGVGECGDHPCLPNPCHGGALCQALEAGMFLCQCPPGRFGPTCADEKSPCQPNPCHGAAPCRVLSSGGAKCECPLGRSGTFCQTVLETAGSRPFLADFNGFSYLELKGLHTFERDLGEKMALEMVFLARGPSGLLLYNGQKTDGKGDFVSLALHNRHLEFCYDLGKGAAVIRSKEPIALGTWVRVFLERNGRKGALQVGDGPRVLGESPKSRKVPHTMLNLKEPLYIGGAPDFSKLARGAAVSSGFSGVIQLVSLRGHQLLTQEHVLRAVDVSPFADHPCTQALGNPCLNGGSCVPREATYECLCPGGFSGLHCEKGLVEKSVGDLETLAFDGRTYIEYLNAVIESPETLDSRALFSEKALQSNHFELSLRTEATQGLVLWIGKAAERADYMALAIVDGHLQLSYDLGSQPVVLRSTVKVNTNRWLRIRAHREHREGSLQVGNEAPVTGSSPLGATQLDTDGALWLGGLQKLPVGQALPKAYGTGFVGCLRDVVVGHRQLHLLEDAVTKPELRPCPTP

How the values were obtained:
LRP4N-Myc (rat) = LRP4N-Myc (rat) (UniProt Q9QYP1); test: bead pull-down, anti-Myc immunoblot
[1] = target: endogenous LRP4 of mouse muscle cells (mouse) (UniProt Q8VI56); test: co-immunoprecipitation from C2C12 myotubes with rabbit anti-LRP4 antibody with or without neuronal agrin, MuSK blot quantified (quantification of FIG. 7A)
[2] = target: endogenous LRP4 of mouse muscle cells (mouse) (UniProt Q8VI56); test: co-immunoprecipitation with rabbit anti-LRP4 antibody from C2C12 myotube lysates, with or without neuronal agrin
[3] = target: endogenous LRP4 of mouse muscle cells (mouse) (UniProt Q8VI56); test: co-immunoprecipitation with anti-LRP4 antibody from C2C12 myotubes; increased in agrin-stimulated myotubes
[4] = target: endogenous LRP4 of mouse muscle cells (mouse) (UniProt Q8VI56); test: co-immunoprecipitation with rabbit anti-LRP4 antibody from mouse muscle homogenates
[5] = target: endogenous LRP4 of mouse muscle cells (mouse) (UniProt Q8VI56); test: co-immunoprecipitation from mouse muscle homogenates with rabbit anti-LRP4 antibody, blot for MuSK
[6] = target: endogenous LRP4 of mouse muscle cells (mouse) (UniProt Q8VI56); test: co-immunoprecipitation from mouse muscle homogenates

Measured: binding

Flag-nAgrin (from UniProt P25304 1137-1951) (ligand)
binds: LRP4N-Myc (rat)

B1: endogenous MuSK of mouse muscle cells (receptor, UniProt Q61006 22-868, looked up)
chain: EKLPKAPVITTPLETVDALVEEVATFMCAVESYPQPEISWTRNKILIKLFDTRYSIRENGQLLTILSVEDSDDGIYCCIANNGVGGAVESCGALQVKMKPKITRPPINVKIIEGLKAVLPCTTMGNPKPSVSWIKGDNALRENSRIAVLESGSLRIHNVQKEDAGQYRCVAKNSLGTAYSKLVKLEVEVFARILRAPESHNVTFGSFVTLRCTAIGIPVPTISWIENGNAVSSGSIQESVKDRVIDSRLQLFITKPGLYTCIATNKHGEKFSTAKAAATVSIAEWSKSQKDSQGYCAQYRGEVCDAVLAKDALVFFNTSYRDPEDAQELLIHTAWNELKAVSPLCRPAAEALLCNHLFQECSPGVVPTPMPICREYCLAVKELFCAKEWQAMEGKAHRGLYRSGMHLLPVPECSKLPSMHRDPTACTRLPYLDYKKENITTFPSITSSRPSADIPNLPASTSSFAVSPAYSMTVIISIVSSFALFALLTIATLYCCRRRKEWKNKKRESTAVTLTTLPSELLLDRLHPNPMYQRMPLLLNPKLLSLEYPRNNIEYVRDIGEGAFGRVFQARAPGLLPYEPFTMVAVKMLKEEASADMQADFQREAALMAEFDNPNIVKLLGVCAVGKPMCLLFEYMAYGDLNEFLRSMSPHTVCSLSHSDLSTRARVSSPGPPPLSCAEQLCIARQVAAGMAYLSERKFVHRDLATRNCLVGETMVVKIADFGLSRNIYSADYYKADGNDAIPIRWMPPESIFYNRYTTESDVWAYGVVLWEIFSYGLQPYYGMAHEEVIYYVRDGNILACPENCPLELYNLMRLCWSKLPADRPSFCSIHRILQRMCERAEGTVGV
not listed: LRP4N-Myc (rat)
binds: all other assays above
